Results are given in words; binding and its absence hold for the method and conditions named. Binding calls can cover weak binding; strength is not graded here.

This experiment addresses neuropilin-1 (Homo sapiens (Human)). The experiment is described as follows: summary of the phage binding and inhibition experiments.

With CRGDK [CRGDK fragment], the binding result is given as “binds”.
